The assay in a line: qHTS Assay for Lipid Storage Modulators in Drosophila S3 Cells.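 As to cell number change: cells counted by Cell Tracker Red CMTPX staining in the red channel.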 The following applies: BODIPY lipid droplet fluorescence, 18-24 h; for cell number change: measured here: cell count max response, cells fed with added oleic acid. A digest of the protocol:
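Drosophila S3 cells loaded with oleic acid (400 uM, as added) and compounds at several concentrations; lipid droplets imaged by 488-nm laser-scanning cytometry, 500–530 nm intensity and object ratio to cell channel. Percent activity normalized to 20 uM Triacsin C.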
Background: Quantitative high-throughput screening tests each substance at several concentrations.

Setting [1] is: measured here: cell number channel AC50, cells fed with added oleic acid.
Setting [2] is: measured here: lipid fluorescence (Fed channel) AC50, cells fed with added oleic acid.

The list shows a part of the results. Shown are side measurements of this screen, not its main read-out; they come without a call. Compounds called inactive in the main read-out are mostly missing here. Words in brackets tell the shape of the fitted curve; partial curves, single points and poor fits give uncertain potencies.

Broadly, the AC50 is the concentration giving half of the maximal activity seen.

On to `CCOC(=O)c1ccc(NC(=O)CSc2ccc(-c3ccccn3)nn2)cc1`, for which the cell number change was determined as 11.8%.

For the compound `CCOc1ccc2[nH]c3c(N4CCc5ccccc5C4)ncnc3c2c1`, the cell number change is -51.5%. Under setting [1], the AC50 is 20.6 µM [falling, single point]. Under setting [2], the half-maximal activity concentration (AC50) was 20.6 µM [falling, single point]. Regarding `CCN(CC)CCN(C(=O)/C=C/c1cccs1)c1nc2ccc(Cl)cc2s1`, the cell number change was -0.295%. For the same compound, the AC50 under setting [1] was 4.11 µM [rising, single point]. On to `Cc1ccc(C(C)C)c(OCCCN2CCc3ccccc3C2)c1`, for which, under setting [2], the half-maximal activity concentration (AC50) was 20.6 µM [falling, partial curve]. For `O=C(/C=C/c1ccc(Cl)cc1Cl)NC(=S)Nc1ccccn1`, the cell number change stood at 8.4%. On to `CCCCC(=O)Nc1cccc(NC(=S)NC(=O)Cc2ccccc2)c1`, for which the cell number change is -8.93%. The half-maximal activity concentration (AC50) under setting [2] is 18.4 µM [falling, partial curve]. On to `O=S(=O)(Nc1nc(-c2sccc2Cl)cs1)c1cc(Cl)ccc1Cl`, for which the cell number change was -17.8%. Moreover, the concentration at half-maximal activity (AC50) under setting [2] was 6.51 µM [rising, single point]. For the compound `CCOc1cccc2cc(C(=O)N3CCOCC3)c(=O)oc12`, the cell number change came to 0.495%. Besides, the half-maximal activity concentration (AC50) under setting [2] was 6.51 µM [falling, single point]. Regarding `CCC(=O)NC1CCN(C(=S)NC)CC1`, the cell number change is -4.67%.

Take `COc1ccc(-c2cc(C(=O)Nc3c(C)n(C)n(-c4ccccc4)c3=O)c3ccccc3n2)cc1`: the cell number change amounted to 2.17%. As to `Cc1ccc(/C=N/n2cnc3sc(-c4ccccc4)cc3c2=O)o1`, the cell number change is 39.8%. The AC50 under setting [1] is 2.91 µM [rising, single point]. Regarding `Cc1c(CN2CCN(CC(C)C)C(CCO)C2)[nH]c2ccc(Cl)cc12` (centres undefined), the cell number change was -11.5%. Same read-out and setting: as for `COc1cc(C2=NOC(C(=O)Nc3c(C)n(C)n(-c4ccccc4)c3=O)C2)cc(OC)c1OC` (centres undefined), the figure is 0.272%.

`Cc1onc(-c2ccccc2)c1C(=O)Nc1nnc(CC(C)(C)C)s1`: the cell number change turned out to be 5.42%. The AC50 under setting [2] was 2.31 µM [falling, partial curve]. Regarding `Cc1ccsc1/C=N/NC(=O)c1ccc2nc[nH]c2c1`, the cell number change was -5.97%. Further, the half-maximal activity concentration (AC50) under setting [2] is 32.6 µM [rising, single point].

Take `Cc1ccc(S(=O)(=O)c2nc(Cc3ccccc3)oc2N2CCOCC2)cc1`: the cell number change turned out to be 14%. Also, the AC50 under setting [1] is 0.0058 µM [rising, full curve, poor fit].

For `CC(=O)Nc1ccc(C(=O)N(C)c2ccccc2)cc1`, the cell number change stood at 4.42%. Moreover, the AC50 under setting [1] is 0.651 µM [falling, full curve, poor fit]. As to `CCCOc1ccc(CNC(=O)c2ccc3nc(N4CCOCC4)sc3c2)cc1`, the cell number change turned out to be 21.6%. For the same compound, the concentration at half-maximal activity (AC50) under setting [1] was 0.058 µM [rising, full curve, poor fit]. Regarding `COc1ccc(C(=O)Nn2c(SCc3ccc([N+](=O)[O-])cc3)nc3ccccc3c2=O)cc1`, the cell number change was 72.7%. Also, the concentration at half-maximal activity (AC50) under setting [1] was 20.6 µM [rising, single point]. In the case of `COc1ccc(NC(=O)CC2C(=O)N(C)C(=S)N2CCc2ccccc2)cc1` (centres undefined), the cell number change came to 0.144%. Also, the AC50 under setting [2] is 2.91 µM [rising, partial curve, poor fit]. In the case of `C=CCn1c(COc2ccccc2)nnc1SCC(=O)Nc1ccc2c(c1)OCCO2`, the cell number change was -40.7%. Besides, the AC50 under setting [1] is 16.4 µM [falling, partial curve]. In addition, under setting [2], the AC50 was 16.4 µM [falling, partial curve]. For `CC(C)(C)c1cccc(Oc2nn[nH]n2)c1`, the cell number change was 27.6%. In the case of `C[C@]12CC[C@@H]3c4ccc(O)cc4[C@@H](O)C[C@H]3[C@@H]1CC[C@@H]2O`, the cell number change worked out at 10.4%. Moreover, the AC50 under setting [2] was 0.58 µM [falling, full curve, poor fit]. Consider `COCC(=O)N(C)c1nnc(-c2ccccn2)s1`, for which, under setting [2], the AC50 was 0.00461 µM [rising, full curve, poor fit].

Consider `COc1cc(C(=O)/C=C/c2cccnc2)ccc1O`, for which the cell number change came out at 24.4%. Turning to `Cc1ccc(Cl)cc1N1CCN(C(=O)c2ccc(NS(=O)(=O)c3c(C)noc3C)cc2)CC1`, the cell number change is -32%. Besides, under setting [1], the AC50 is 32.6 µM [falling, partial curve, poor fit]. Besides, the concentration at half-maximal activity (AC50) under setting [2] is 0.00411 µM [falling, full curve, poor fit]. As to `CCNS(=O)(=O)c1ccc2nc(NC(=O)/C=C/c3cc(OC)c(OC)c(OC)c3)sc2c1`, the cell number change came out at 11.1%. Further, the AC50 under setting [2] was 0.00461 µM [falling, full curve, poor fit]. Take `CC1CN(S(=O)(=O)c2cccc(C(=O)Nc3ccccc3N3CCCCC3)c2)CC(C)O1` (centres undefined): the half-maximal activity concentration (AC50) under setting [2] was 29.1 µM [falling, single point].

For `Cc1ccc(C(=O)N/N=C/c2ccc(N3CCOCC3)cc2)c(C)c1`, the cell number change was 44.4%. The AC50 under setting [1] was 16.4 µM [rising, single point].

Consider `CCOC(=O)C1=C(O)C(=O)NC(c2ccccc2)=C(OC2CCCCC2)C1`, for which the cell number change was -9.22%. Under setting [2], the half-maximal activity concentration (AC50) was 0.58 µM [falling, single point]. With `COc1ccc(-c2csc(NC(=O)c3cccc(S(=O)(=O)N4CCN(C)CC4)c3)n2)cc1`, the cell number change is -16.9%. Further, the AC50 under setting [1] was 0.231 µM [falling, full curve]. For the same compound, the half-maximal activity concentration (AC50) under setting [2] was 0.103 µM [falling, full curve, poor fit]. In the case of `COc1ccccc1NC(=O)/C=C1\SCC(=O)N1C`, the cell number change came to 43.7%. The AC50 under setting [1] was 29.1 µM [rising, single point].

With `Cc1ccc(C(=O)NCCC(=O)Nc2ccccc2C)cc1`, the cell number change is -9.12%. Moreover, the AC50 under setting [2] was 29.1 µM [falling, single point]. In the case of `CCOc1ccc2nc(SCC(=O)NC3CCCc4ccccc43)sc2c1` (centres undefined), the cell number change was 31%. Also, under setting [1], the concentration at half-maximal activity (AC50) was 9.2 µM [rising, partial curve, poor fit]. In addition, the AC50 under setting [2] is 9.2 µM [rising, partial curve, poor fit]. For `c1ccc(CCNc2ncnc3scc(C4COc5ccccc5O4)c23)cc1` (centres undefined), under setting [2], the AC50 is 29.1 µM [rising, single point].

Consider `CCN(CC)C(=O)CSc1nc(OC)cc(=O)[nH]1`, for which the cell number change worked out at 5.3%. In addition, the half-maximal activity concentration (AC50) under setting [1] is 1.84 µM [falling, partial curve]. Also, the concentration at half-maximal activity (AC50) under setting [2] is 0.731 µM [falling, full curve]. Consider `O=C1C2C3C=CC(C3)C2C(=O)N1c1n[nH]c(CCc2ccccc2)n1` (centres undefined), for which the cell number change was found to be 7.27%. For the same compound, the half-maximal activity concentration (AC50) under setting [2] is 20.6 µM [rising, partial curve]. As for `O=C(O)COc1ccccc1/C=N/NC(=O)CSc1nc2ccccc2s1`, the cell number change came to 28.1%. The AC50 under setting [2] was 6.51 µM [rising, single point].

In the case of `Cc1ccnc(NS(=O)(=O)c2ccc(NC(=O)C3CCCCC3)cc2)n1`, the cell number change was -0.0431%. The half-maximal activity concentration (AC50) under setting [2] was 32.6 µM [rising, single point]. Consider `O=C(Nc1ccccc1)c1ccc(COc2ccccc2)cc1`, for which the cell number change was determined as 1.53%. For the same compound, under setting [1], the half-maximal activity concentration (AC50) is 5.17 µM [falling, partial curve, poor fit]. Also, under setting [2], the AC50 is 6.51 µM [falling, single point]. Turning to `Cc1ccc(C(=O)N2CCn3c(C)ccc3C2C)cc1` (centres undefined), under setting [1], the concentration at half-maximal activity (AC50) was 4.11 µM [rising, single point].

`COc1ccc(NC(=O)C2CCCN(S(=O)(=O)c3ccc4[nH]c(=O)ccc4c3)C2)cc1` (centres undefined): the cell number change was found to be 30.8%. Under setting [1], the AC50 was 8.2 µM [rising, partial curve, poor fit]. As to `CCOc1ccc(NC(=O)CSc2nnc(C34CC5CC(CC(C5)C3)C4)n2C)cc1`, the cell number change was 27.3%. The half-maximal activity concentration (AC50) under setting [2] is 29.1 µM [rising, single point]. Regarding `CCN(CC)CC(=O)Nc1ccccc1SCC(=O)Nc1ccsc1C(=O)OC`, the cell number change came to 13.6%. In addition, under setting [2], the AC50 is 6.51 µM [rising, single point]. Take `Cc1cc(C)n2c(SCc3ccccc3Cl)nnc2n1`: the cell number change amounted to 93.6%. Also, under setting [2], the AC50 was 16.4 µM [rising, partial curve]. For the compound `Cc1csc2nc(O)c(C(=O)NC3CCCCC3)c(=O)n12`, the cell number change was -25.5%. Further, the AC50 under setting [2] is 18.4 µM [falling, single point].

Turning to `O=C(C1=C[C@H](c2csc3ccccc23)C[C@H](OCCCCO)O1)N1CCN(Cc2ccc3c(c2)OCO3)CC1`, the cell number change was -32.6%. In addition, the AC50 under setting [1] is 29.1 µM [falling, single point].

As to `CS(=O)(=O)c1ccc([C@@H](O)[C@@H](CF)NC(=O)C(Cl)Cl)cc1`, the cell number change is -6.48%. Further, under setting [2], the half-maximal activity concentration (AC50) was 0.366 µM [falling, full curve, poor fit].

`COc1cccc(C(=O)NNC(=O)c2ccccc2)c1`: the cell number change was -6.59%. For the compound `CCCC[C@]12Cc3ccccc3[C@H](O1)C1=C(O2)C(=O)c2ccccc2C1=O`, the cell number change is 10.2%. In addition, the half-maximal activity concentration (AC50) under setting [2] was 5.31 µM [rising, single point]. `CC(C)CNC(=O)COC(=O)c1ccc(F)cc1Cl`: the cell number change worked out at 0.947%. Take `COCCCn1c(SCC(=O)N(C)C)nnc1-c1ccccc1`: the cell number change amounted to 1.35%. The concentration at half-maximal activity (AC50) under setting [2] was 0.82 µM [falling, single point]. In the case of `Cc1ccc2nsnc2c1NC(=O)c1ccc(-c2cc(Cl)ccc2Cl)o1`, the cell number change was -7.13%. Moreover, the AC50 under setting [1] is 3.66 µM [falling, partial curve]. Moreover, the AC50 under setting [2] was 5.17 µM [falling, full curve, poor fit]. For the compound `N=c1ccccn1CC(O)COc1ccccc1` (centres undefined), the cell number change is -8.66%. Further, the AC50 under setting [2] is 3.66 µM [falling, full curve, poor fit].

Turning to `N#Cc1ccc(OCC(=O)Nc2ccncc2)cc1`, the cell number change was -6.31%. Besides, the half-maximal activity concentration (AC50) under setting [2] was 0.58 µM [falling, single point]. As to `COc1ccc(CCNC(=O)CSc2nnc3ccccn23)cc1`, under setting [1], the concentration at half-maximal activity (AC50) is 0.58 µM [rising, single point]. As to `CC(=O)NNC(=O)CSc1nnc(-c2ccccc2)c(-c2ccccc2)n1`, the cell number change came out at 3.04%.

Regarding `CCOc1ccc(NC(=O)COC(=O)c2ccc3c(c2)C(=O)N(CCc2ccccc2)C3=O)cc1`, under setting [2], the AC50 was 6.51 µM [rising, single point]. For `CCN1CCN(C(=S)Nc2ccc3nc(N4CCN(CC)CC4)cc(C)c3c2)CC1`, the cell number change is -42.2%. Besides, the concentration at half-maximal activity (AC50) under setting [1] is 3.66 µM [falling, full curve]. Besides, the AC50 under setting [2] is 29.1 µM [falling, single point]. For the compound `COc1ccc(Cc2c(Cl)ncnc2Cl)cc1`, the concentration at half-maximal activity (AC50) under setting [2] is 14.6 µM [falling, partial curve].

Turning to `CSc1ccccc1OCc1cc(C(=O)N2CCN(Cc3nccn3C)CC2)no1`, the cell number change was 21.6%. Besides, under setting [2], the half-maximal activity concentration (AC50) was 29.1 µM [falling, single point]. In the case of `CCOC(=O)c1cc2ccccc2n1CC(=O)c1ccccc1`, the cell number change was 66%. For the same compound, the AC50 under setting [1] was 29.1 µM [rising, single point].

The values above are taken from PubChem BioAssay AID2685 (National Center for Advancing Translational Sciences (NCATS), 2010).
